# According to article doi:10.1101/2020.10.21.348805 (bioRxiv, 2020):
# These are yes or no findings as the source states them, for the method shown. For part of these data: In cells and extracts the contact can be indirect. Some results given as binding are weak or reduced against the parent protein; the word gives no strength. For part of these data: Where a sequence is shown, tags or fusion partners need not be part of it.
# T1: OsDMI3 (pGBKT7-OsDMI3) (rice (Oryza sativa)) (UniProt Q6AVM3)
# T1 sequence: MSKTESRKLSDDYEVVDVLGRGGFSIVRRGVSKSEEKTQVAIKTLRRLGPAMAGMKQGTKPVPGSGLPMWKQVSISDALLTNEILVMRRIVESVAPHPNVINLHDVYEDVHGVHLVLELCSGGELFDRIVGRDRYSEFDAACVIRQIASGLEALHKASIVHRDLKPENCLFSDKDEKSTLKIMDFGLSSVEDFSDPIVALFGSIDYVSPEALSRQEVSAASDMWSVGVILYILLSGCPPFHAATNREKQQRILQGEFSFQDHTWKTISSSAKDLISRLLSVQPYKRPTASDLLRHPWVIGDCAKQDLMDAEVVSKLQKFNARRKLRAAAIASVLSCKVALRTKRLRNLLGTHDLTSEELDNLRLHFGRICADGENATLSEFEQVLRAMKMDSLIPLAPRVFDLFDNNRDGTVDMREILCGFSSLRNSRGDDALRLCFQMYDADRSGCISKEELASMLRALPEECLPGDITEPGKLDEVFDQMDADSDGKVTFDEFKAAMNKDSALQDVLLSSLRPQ
# T2: EF hands domain (337 to 516 amino acids) of OsDMI3, Y2H construct (rice (Oryza sativa)) (UniProt Q6AVM3)
# T2 sequence: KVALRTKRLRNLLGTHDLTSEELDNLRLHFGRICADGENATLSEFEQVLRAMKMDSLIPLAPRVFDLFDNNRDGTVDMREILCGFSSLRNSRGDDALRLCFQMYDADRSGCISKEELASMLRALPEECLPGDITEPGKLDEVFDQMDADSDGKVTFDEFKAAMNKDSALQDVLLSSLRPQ
# T3: OsDMI3 split-YFP fusion for BiFC (rice (Oryza sativa)) (UniProt Q6AVM3)
# T3 sequence: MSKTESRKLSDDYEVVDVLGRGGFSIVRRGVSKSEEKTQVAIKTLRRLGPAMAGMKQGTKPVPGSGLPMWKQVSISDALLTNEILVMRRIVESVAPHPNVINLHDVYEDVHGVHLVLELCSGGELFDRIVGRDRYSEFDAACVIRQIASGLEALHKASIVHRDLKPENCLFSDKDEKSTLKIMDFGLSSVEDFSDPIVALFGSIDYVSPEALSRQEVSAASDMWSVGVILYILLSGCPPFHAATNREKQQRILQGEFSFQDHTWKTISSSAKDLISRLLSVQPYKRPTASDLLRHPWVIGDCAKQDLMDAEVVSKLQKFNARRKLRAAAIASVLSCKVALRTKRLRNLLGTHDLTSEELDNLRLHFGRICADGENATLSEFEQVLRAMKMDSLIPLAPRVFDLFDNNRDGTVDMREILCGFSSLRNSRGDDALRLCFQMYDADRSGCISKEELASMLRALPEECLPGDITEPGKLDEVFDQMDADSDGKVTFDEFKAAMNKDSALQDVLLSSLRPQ
# T4: OsDMI3-Myc (rice (Oryza sativa)) (UniProt Q6AVM3)
# T4 sequence: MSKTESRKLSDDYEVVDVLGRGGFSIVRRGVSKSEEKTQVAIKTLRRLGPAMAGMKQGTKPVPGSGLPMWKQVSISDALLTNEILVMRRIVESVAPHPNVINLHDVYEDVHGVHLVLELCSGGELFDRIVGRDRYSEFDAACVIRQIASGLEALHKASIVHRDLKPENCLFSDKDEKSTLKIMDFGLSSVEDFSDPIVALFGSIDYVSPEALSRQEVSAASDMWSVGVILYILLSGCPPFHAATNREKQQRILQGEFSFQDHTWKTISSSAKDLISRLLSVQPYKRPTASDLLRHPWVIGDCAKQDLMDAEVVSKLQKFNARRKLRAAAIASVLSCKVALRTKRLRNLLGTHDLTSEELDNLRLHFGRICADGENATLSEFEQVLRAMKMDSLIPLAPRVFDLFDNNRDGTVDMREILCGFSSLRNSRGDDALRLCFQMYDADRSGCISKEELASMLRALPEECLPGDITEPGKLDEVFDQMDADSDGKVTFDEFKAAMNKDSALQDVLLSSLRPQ
# How the values were obtained:
# [1] = target: T1, OsDMI3 (pGBKT7-OsDMI3) (rice (Oryza sativa)); test: two-hybrid
# [2] = target: T2, EF hands domain (337 to 516 amino acids) of OsDMI3, Y2H construct (rice (Oryza sativa)); test: two-hybrid
# [3] = target: T3, OsDMI3 split-YFP fusion for BiFC (rice (Oryza sativa)); test: split reporter
# [4] = target: T4, OsDMI3-Myc (rice (Oryza sativa)); test: co-IP
# [5] = target: EF hands domain (337 to 516 amino acids) of OsDMI3, LCI construct (rice (Oryza sativa)) (UniProt Q6AVM3); test: split reporter
binder,measurement,setting,value
"N-terminus domain (1 to 71 amino acids) of OsMKK6, Y2H construct (domain or fragment, UniProt Q5QN75 1-71) MRGKKPHKELKLSVPAQETPVDKFLTASGTFKDGELRLNQRGLQLISEETADEPQSTNLKVEDVQLSMDDL",binding,[1],binds
"OsMKK6 (pGADT7-OsMKK6) (enzyme, UniProt Q5QN75 1-355) MRGKKPHKELKLSVPAQETPVDKFLTASGTFKDGELRLNQRGLQLISEETADEPQSTNLKVEDVQLSMDDLEMIQVIGKGSGGIVQLVRHKWVGTLYALKGIQMNIQEAVRKQIVQELKINQATQNAHIVLCHQSFYHNGVIYLVLEYMDRGSLADIIKQVKTILEPYLAVLCKQVLEGLLYLHHERHVIHRDIKPSNLLVNRKGEVKITDFGVSAVLASSMGQRDTFVGTYNYMAPERISGSSYDYKSDIWSLGLVILECAIGRFPYIPSEGEGWLSFYELLEAIVDQPPPSAPADQFSPEFCAFISSCIQKDPAERMSASELLNHPFIKKFEDKDLDLRILVESLEPPMNISE",binding,[2],binds
same,binding,[1],binds
"OsMKK6 split-YFP fusion for BiFC (enzyme, UniProt Q5QN75 1-355) MRGKKPHKELKLSVPAQETPVDKFLTASGTFKDGELRLNQRGLQLISEETADEPQSTNLKVEDVQLSMDDLEMIQVIGKGSGGIVQLVRHKWVGTLYALKGIQMNIQEAVRKQIVQELKINQATQNAHIVLCHQSFYHNGVIYLVLEYMDRGSLADIIKQVKTILEPYLAVLCKQVLEGLLYLHHERHVIHRDIKPSNLLVNRKGEVKITDFGVSAVLASSMGQRDTFVGTYNYMAPERISGSSYDYKSDIWSLGLVILECAIGRFPYIPSEGEGWLSFYELLEAIVDQPPPSAPADQFSPEFCAFISSCIQKDPAERMSASELLNHPFIKKFEDKDLDLRILVESLEPPMNISE",binding,[3],binds
"OsMKK6-Flag (enzyme, UniProt Q5QN75 1-355) MRGKKPHKELKLSVPAQETPVDKFLTASGTFKDGELRLNQRGLQLISEETADEPQSTNLKVEDVQLSMDDLEMIQVIGKGSGGIVQLVRHKWVGTLYALKGIQMNIQEAVRKQIVQELKINQATQNAHIVLCHQSFYHNGVIYLVLEYMDRGSLADIIKQVKTILEPYLAVLCKQVLEGLLYLHHERHVIHRDIKPSNLLVNRKGEVKITDFGVSAVLASSMGQRDTFVGTYNYMAPERISGSSYDYKSDIWSLGLVILECAIGRFPYIPSEGEGWLSFYELLEAIVDQPPPSAPADQFSPEFCAFISSCIQKDPAERMSASELLNHPFIKKFEDKDLDLRILVESLEPPMNISE",binding,[4],binds
"OsMKK6, LCI construct (enzyme, UniProt Q5QN75 1-355) MRGKKPHKELKLSVPAQETPVDKFLTASGTFKDGELRLNQRGLQLISEETADEPQSTNLKVEDVQLSMDDLEMIQVIGKGSGGIVQLVRHKWVGTLYALKGIQMNIQEAVRKQIVQELKINQATQNAHIVLCHQSFYHNGVIYLVLEYMDRGSLADIIKQVKTILEPYLAVLCKQVLEGLLYLHHERHVIHRDIKPSNLLVNRKGEVKITDFGVSAVLASSMGQRDTFVGTYNYMAPERISGSSYDYKSDIWSLGLVILECAIGRFPYIPSEGEGWLSFYELLEAIVDQPPPSAPADQFSPEFCAFISSCIQKDPAERMSASELLNHPFIKKFEDKDLDLRILVESLEPPMNISE",binding,[5],binds
